{"source": "patent US9289411B2", "about": "“Anti-HCV agent” (NATIONAL UNIVERSITY CORPORATION OKAYAMA UNIVERSITY, priority 2011, dated 2016)", "assay_type_in_all_cases": "cell-based, HCV genotype 1b", "key": {"[1]": {"tested_on": "HCV core protein in OR6 cells", "test": "Western blot analysis of HCV core protein expression in OR6 cells", "settings": "72 hours", "experimental": "(§1) N-89 and N-251 were diluted with DMSO. After 72 hours, sampling was performed with 100 μL of 2×SDS buffer. 10 μL of a sample were applied to SDS-PAGE electrophoresis and subjected to Western blot analysis using an anti-HCV core antibody and an anti-β-actin antibody according to a conventional method. For the detection of β-actin, a sample diluted 10-fold with 2×SDS buffer in advance was used because the expression amount of β-actin was high."}, "[2]": {"tested_on": "HCV core protein in ORL8 cells", "test": "Western blot analysis of HCV core protein expression in ORL8 cells", "settings": "72 hours", "experimental": "as §1, with “Sampling” for “After 72 hours, sampling”, “buffer 72 hours after the culture.” for “buffer.”, “It should be noted that for” for “For”, “used.” for “used because the expression amount of β-actin was high.”"}, "[3]": {"tested_on": "HCV-RNA replication in OR6, 1B-4R, AH1R, ORL8, ORL11, 1B-4RL and KAH5RL cells", "test": "Anti-HCV activity summarized over cells derived from various HCV strains (reporter assays)", "settings": "alone, irrespective of HCV strains and cell lines"}}, "note": "Some results were stated once for a whole list of compounds, not compound by compound."}
{"smiles": "OCCCCCCC1COOC2(CCCCCCCCCCC2)OOC1", "note": "[N-251, 6-(1,2,6,7-tetraoxaspiro[7,11]nonadec-4-yl)]", "values": [{"measurement": "concentration regions with remarkable reductions in β-actin", "setting": "[1]", "result": "≥ 10", "unit": "µM"}, {"measurement": "concentration regions with remarkable reductions in β-actin", "setting": "[2]", "result": "≥ 5", "unit": "µM"}, {"measurement": "concentration at which potent anti-HCV activity / suppression of HCV-RNA replication is exhibited", "setting": "[3]", "result": "≤ 1", "unit": "µM"}]}
{"smiles": "C1CCCCCC2(CCCCC1)OOCCCOO2", "note": "[N-89, 1,2,6,7-tetraoxaspiro[7,11]nonadecane]", "values": [{"measurement": "concentration regions with remarkable reductions in β-actin", "setting": "[1]", "result": "≥ 10", "unit": "µM"}, {"measurement": "concentration regions with remarkable reductions in β-actin", "setting": "[2]", "result": "≥ 5", "unit": "µM"}, {"measurement": "concentration at which potent anti-HCV activity / suppression of HCV-RNA replication is exhibited", "setting": "[3]", "result": "≤ 1", "unit": "µM"}]}
